The record followed here is patent US20110229459A1.

One experiment deals with T1, rhNR10 (human) (UniProt Q8NI17).
T1 sequence: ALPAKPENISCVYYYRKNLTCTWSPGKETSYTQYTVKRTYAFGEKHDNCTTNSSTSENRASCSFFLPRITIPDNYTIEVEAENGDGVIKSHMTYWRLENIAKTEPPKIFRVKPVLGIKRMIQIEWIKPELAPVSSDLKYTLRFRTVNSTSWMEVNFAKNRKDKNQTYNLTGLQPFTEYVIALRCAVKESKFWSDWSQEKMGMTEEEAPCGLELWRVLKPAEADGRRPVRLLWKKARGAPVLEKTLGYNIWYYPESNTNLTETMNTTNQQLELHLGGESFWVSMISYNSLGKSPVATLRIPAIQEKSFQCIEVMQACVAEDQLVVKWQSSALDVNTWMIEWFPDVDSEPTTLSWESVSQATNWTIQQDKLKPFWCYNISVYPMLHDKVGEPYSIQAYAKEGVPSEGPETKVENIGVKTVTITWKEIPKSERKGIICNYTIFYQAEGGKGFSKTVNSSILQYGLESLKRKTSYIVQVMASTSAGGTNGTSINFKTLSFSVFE
The experiment is described as follows: SPR (Biacore T100): antibody captured on Protein A, rhNR10 as analyte. Background: SPR reads the build-up and loss of mass on a sensor chip optically.

Experiment [1] addresses cytoplasmic domain-lacking human NR10 on CHO cells (human) (UniProt Q8NI17). In words: FMAT competition: FMAT Blue-NS22 on hNR10-expressing CHO cells, unlabeled antibody titrated.
Experiment [2] has the same target. The experiment is described as follows: FMAT competition on hNR10-expressing CHO cells; competitor: FMAT Blue-NS22 at 8.8x10^-2 µg/ml.

Substitutions are numbered along the chain they refer to. These are yes or no findings as the source states them, for the method shown. Some binding calls cover weakened binding; strength is not graded here.

B1: H0L17 (H chain, H0-M58; L chain, L17) (antibody, V domains shown)
VH: QVQLVQSGAEVKKPGASVKVSCKASGYTFTGYIMNWVRQAPGQGLEWMGLINPYNGGTSYNQKFKGRVTITADESTSTAYMELSSLRSEDTAVYYCARDGYDDGPYTMDYWGQGTLVTVSS
VL: DIQMTQSPSSLSASVGDRVTITCQASEDIYSFVAWYQQKPGKAPKLLIYNAQTEAQGVPSRFSGSGSGTDFTLTISSLQPEDFATYYCQHHYDSPLTFGGGTKVEIKR
B1: in the experiment with rhNR10 (human), the binding result was “binds”.

B2: Ha101L0 (H chain, Ha101-SKSC; L chain, L0) (antibody, V domains shown)
VH: B1 VH with I33V
VL: B1 VL with Q24R, A25T, D28N, V33L, Q52K, E54L, Q56K, D93E
Regarding B2, the binding result in the experiment with rhNR10 (human) is listed as “binds”.

B3: Ha103L0 (H chain, Ha103-SKSC; L chain, L0) (antibody, V domains shown)
VH: B1 VH with M34I
VL: B1 VL with Q24R, A25T, D28N, V33L, Q52K, E54L, Q56K, D93E
For the molecule B3, in the experiment with rhNR10 (human), the binding result is recorded as “binds”.

B4: H30L17 (H chain, H30-M58; L chain, L17) (antibody, V domains shown)
VH: B1 VH with S59D, Q62P, K63Q, K65Q, G66D, M108L, D109E, Y110T
VL: B1 VL
Regarding B4, the binding entry in the experiment with rhNR10 (human) is “binds”.

B5: H28L17 (H chain, H28-M58; L chain, L17) (antibody, V domains shown)
VH: B1 VH with I33V, M34L, S59D, Q62P, K63Q, K65Q, G66D, M108L, D109E, Y110T
VL: B1 VL
Take B5: the binding entry with rhNR10 (human) was “binds”.

B6: H0La303 (H chain, H0-SKSC; L chain, La303) (antibody, V domains shown)
VH: B1 VH
VL: B1 VL with Q24R, A25T, D28N, V33L, Q52K, E54L, Q56K
For the molecule B6, the binding entry with rhNR10 (human) is on record as “binds”.

B7: H34L17 (H chain, H34-M58; L chain, L17) (antibody, V domains shown)
VH: B1 VH with I33A, S59D, Q62P, K63Q, K65Q, G66D, M108L, D109E, Y110T
VL: B1 VL
For B7, the binding entry in the experiment with rhNR10 (human) is on record as “binds”.

B8: H0La134 (H chain, H0-SKSC; L chain, La134) (antibody, V domains shown)
VH: B1 VH
VL: B1 VL with Q24R, A25T, D28N, S31R, V33L, Q52K, E54L, Q56K, D93E
For B8, the binding result with rhNR10 (human) is listed as “binds”.

B9: Ha204L0 (H chain, Ha204-SKSC; L chain, L0) (antibody, V domains shown)
VH: B1 VH with S59D
VL: B1 VL with Q24R, A25T, D28N, V33L, Q52K, E54L, Q56K, D93E
As to B9, the binding entry in the experiment with rhNR10 (human) was “binds”.

B10: Ha219L0 (H chain, Ha219-SKSC; L chain, L0) (antibody, V domains shown)
VH: B1 VH with Q62P
VL: B1 VL with Q24R, A25T, D28N, V33L, Q52K, E54L, Q56K, D93E
As for B10, in the experiment with rhNR10 (human), the binding result is reported as “binds”.

B11: H0La326 (antibody, V domains shown)
VH: B1 VH
VL: B1 VL with Q24R, A25T, D28N, V33L, Q52K, E54L, Q56K, D93E, T97F
Regarding B11, in the experiment with rhNR10 (human), the binding result is on record as “binds”.

B12: H19L12 (H chain, H19-M58; L chain, L12) (antibody, V domains shown)
VH: B1 VH with I33A, S59D, Q62P, K63Q, K65Q, G66D
VL: B1 VL with A25T
Consider B12, for which the binding result in the experiment with rhNR10 (human) is “binds”.

B13: Ha401La402 (H chain, Ha401-SKSC; L chain, La402) (antibody, V domains shown)
VH: B1 VH with I33V, M34I, S59D
VL: B1 VL with A25T, D28N, S31R, Q52K, E54L, Q56K
As for B13, the binding result with rhNR10 (human) is “binds”.

B14: H46L17 (H chain, H46-M58; L chain, L17) (antibody, V domains shown)
VH: B1 VH with I33A, S59D, Q62P, K63Q, K65Q, G66D, E74K, M108L, D109E, Y110T
VL: B1 VL
Consider B14, for which, in the experiment with rhNR10 (human), the binding entry is on record as “binds”.

B15: H98L50 (H chain, H98-M58; L chain, L50) (antibody, V domains shown)
VH: B1 VH with K63Q, K65Q, G66D, E74K, M108L, D109E, Y110T
VL: B1 VL with V33L
As for B15, in the experiment with rhNR10 (human), the binding result is on record as “binds”.

B16: H97L50 (H chain, H97-M58; L chain, L50) (antibody, V domains shown)
VH: B1 VH with K63Q, K65Q, G66D, M108L, D109E, Y110T
VL: B1 VL with V33L
For the molecule B16, the binding entry with rhNR10 (human) was “binds”.

B17: H92L17 (H chain, H92-M58; L chain, L17) (antibody, V domains shown)
VH: B1 VH with I33A, S59D, Q62P, K63Q, K65Q, E74K, M108L, D109E, Y110T
VL: B1 VL
As to B17, the binding result with rhNR10 (human) was “binds”.

B18: H71L17 (H chain, H71-M58; L chain, L17) (antibody, V domains shown)
VH: B1 VH with I33A, S59D, Q62P, K63Q, K65Q, M108L, D109E, Y110T
VL: B1 VL
For B18, the binding entry with rhNR10 (human) was “binds”.

B19: H0La328 (H chain, H0-SKSC; L chain, La328) (antibody, V domains shown)
VH: B1 VH
VL: B1 VL with Q24R, A25T, D28N, V33L, Q52K, E54L, Q56K, D93E, S94D
In the case of B19, the binding entry with rhNR10 (human) is “binds”.

B20: Hp3Lp15 (H chain, Hp3-SKSC; L chain, Lp15) (antibody, V domains shown)
VH: B1 VH with K63Q, K65Q, G66D
VL: B1 VL with A25T, V33L, D93E
In the case of B20, in the experiment with rhNR10 (human), the binding entry is recorded as “binds”.

B21: H57L17 (H chain, H57-M58; L chain, L17) (antibody, V domains shown)
VH: B1 VH with S59D, Q62P, K63Q, K65Q, M108L, D109E, Y110T
VL: B1 VL
Take B21: the binding entry with rhNR10 (human) was “binds”.

B22: Ha111L0 (H chain, Ha111-SKSC; L chain, L0) (antibody, V domains shown)
VH: B1 VH with M34L
VL: B1 VL with Q24R, A25T, D28N, V33L, Q52K, E54L, Q56K, D93E
As for B22, in the experiment with rhNR10 (human), the binding result is on record as “binds”.

B23: H42L17 (H chain, H42-M58; L chain, L17) (antibody, V domains shown)
VH: QVQLVQSGAEVKKPGASVKVSCKASGYTFTGYVLNWVRQAPGQGLEWMGLINPYNGGTDYNPQFQDRVTITADKSTSTAYMELSSLRSEDTAVYYCARDGYDDGPYTLETWGQGTLVTVSS
VL: B1 VL
As to B23, the binding result with rhNR10 (human) is given as “binds”.

B24: H0La130 (H chain, H0-SKSC; L chain, La130) (antibody, V domains shown)
VH: B1 VH
VL: B1 VL with Q24R, A25T, D28N, S31R, Q52K, E54L, Q56K, D93E
On to B24, for which the binding result with rhNR10 (human) is on record as “binds”.

B25: H78L17 (H chain, H78-M58; L chain, L17) (antibody, V domains shown)
VH: B23 VH with V33I, L34M, D66G
VL: B1 VL
B25: the binding result with rhNR10 (human) is listed as “binds”.

B26: H17L11 (H chain, H17-M58; L chain, L11) (antibody, V domains shown)
VH: B23 VH with K74E, L108M, E109D, T110Y
VL: B1 VL with A25T, S31R
Consider B26, for which, in the experiment with rhNR10 (human), the binding entry is recorded as “binds”.

B27: H44L17 (H chain, H44-M58; L chain, L17) (antibody, V domains shown)
VH: B23 VH with V33I, L34M
VL: B1 VL
With B27, the binding entry with rhNR10 (human) was “binds”.

B28: chimeric NS23 (γ1, κ) (antibody, V domains shown)
VH: EVQLQQSGPELVKPGTSMKISCKASGYSFTGYIMNWVKQSHGKNLEWIGLINPYNGGAEYNQKFKDKATFTVDKSSSTAYMELLSLTSEDSAVYYCARDGYDDGPYTMDYWGQGTSVTVSS
VL: DIQMTQSPASLSASVGETVTFTCRANENIYSYLAWYQQKQGKSPQLLVYNAKTLAEGVPSRFSGSGSGTQFSLKINSLQPEDFGSYYCQHHYGTPPTFGGGTKLEIK
Regarding B28, the binding result in experiment [1] and in experiment [2] was “binds” each time.
